# Some of the results follow.
# B1: Blon0732mut (Bifidobacterium longum) (protein)
# chain: MPTSEHKADDATRHLTLIPAPVTLEYTHGTALIGPLVTIEDADQSWETLPIEQLSDELRHRYGVTVLRRRTHGTVISLGLDSRLAHDEYTLDVSESEGIRVRGGGESGLRYGLQTLRQIIGQTSRAIPCLHIQDKPAFAVRAYSLDVTRGRVPTMEFLTWFVDQLALYKYNQFQLYVEHAFAFVELSEAWRGTDPLTAADITYLDEYCARRGIELVPSLATFGHMYMNLRTREHRGLGEFPEDADRPFSFIERMEHHTLNAADPKAHDFASRLIEEYAPLFRSKSFNIGGNETFDLGRGRSAQDAPEAGRDELYAGFVRDLCETLARHGRQPMLWADIALESPRTMDLLPGDITMLNWMYEPQIDESKIQTIATQGRRQFVCPAVRAWSRFFPDYAGAWLNTYHMALAGTKYDAEGMVVTDWGDYGHVNDPRLSVPGLCYGAQNAWNPIEIDAHEMNRRISALVYGDESGRIMDCLARIDSDGVSFPWDLAVQVLELEYGSGTGALNMDVAACMERSSGGKLTLDRTLGCDDARRRMLQWNRERIERRRDCDQVLRDCGDAFAGLDKGGLTAEFLSVMLDGQRLFNELGEELLALADGKDVGSGANRLAADLELWFERYRAQWLSVGRHAELARIAHVVWSLADILRRGAL
# Legend:
# Assay in all cases: glycan array binding signal (z-score within array); higher = stronger binding
# Conditions in all cases: glycan notation: IUPAC condensed, linker removed
# [1] = target: Gal(b1-3)GlcNAc(b1-2)Man(a1-3)[GlcNAc(b1-4)][Gal(b1-3)GlcNAc(b1-2)Man(a1-6)]Man(b1-4)GlcNAc(b1-4)GlcNAc
# In short: (§1)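 The binding signal is a Z-score computed within each array and averaged over linkers. Arrays of the same protein sequence at different concentrations or buffers were also averaged together. Data originate from 3228 arrays in the Consortium for Functional Glycomics database, kept only where the protein sequence was available.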
# [2] = target: Gal(b1-3)GlcNAc(b1-2)[Gal(b1-3)GlcNAc(b1-6)]Man(a1-6)[Gal(b1-3)GlcNAc(b1-2)Man(a1-3)]Man(b1-4)GlcNAc(b1-4)GlcNAc
# In short: as §1
# [3] = target: Gal(b1-3)GlcNAc(b1-3)Gal(b1-3)GlcNAc
# In short: as §1
# [4] = target: Gal(b1-3)GlcNAc(b1-3)Gal(b1-4)Glc
# In short: as §1
# [5] = target: Gal(b1-3)GlcNAc(b1-3)Gal(b1-4)GlcNAc
# In short: as §1
# [6] = target: Gal(b1-3)GlcNAc(b1-3)Gal(b1-4)GlcNAc(b1-2)Man(a1-3)[Gal(b1-3)GlcNAc(b1-3)Gal(b1-4)GlcNAc(b1-2)Man(a1-6)]Man(b1-4)GlcNAc(b1-4)GlcNAc
# In short: as §1
# [7] = target: Gal(b1-3)GlcNAc(b1-3)Gal(b1-4)GlcNAc(b1-2)[Gal(b1-3)GlcNAc(b1-3)Gal(b1-4)GlcNAc(b1-6)]Man(a1-6)[Gal(b1-3)GlcNAc(b1-3)Gal(b1-4)GlcNAc(b1-2)Man(a1-3)]Man(b1-4)GlcNAc(b1-4)[Fuc(a1-6)]GlcNAc
# In short: as §1
# [8] = target: Gal(b1-3)GlcNAc(b1-3)Gal(b1-4)GlcNAc(b1-3)Gal(b1-4)GlcNAc(b1-2)[Gal(b1-3)GlcNAc(b1-3)Gal(b1-4)GlcNAc(b1-3)Gal(b1-4)GlcNAc(b1-6)]Man(a1-6)[Gal(b1-3)GlcNAc(b1-3)Gal(b1-4)GlcNAc(b1-3)Gal(b1-4)GlcNAc(b1-2)Man(a1-3)]Man(b1-4)GlcNAc(b1-4)[Fuc(a1-6)]GlcNAc
# In short: as §1
# [9] = target: Gal(b1-3)GlcNAc(b1-3)Gal(b1-4)GlcNAc(b1-6)[Gal(b1-3)GlcNAc(b1-3)]Gal(b1-4)Glc
# In short: as §1
# [10] = target: Gal(b1-3)GlcNAc(b1-3)Gal(b1-4)[Fuc(a1-3)]GlcNAc(b1-6)[Gal(b1-3)GlcNAc(b1-3)]Gal(b1-4)Glc
# In short: as §1
# [11] = target: Gal(b1-3)GlcNAc(b1-3)GalNAc
# In short: as §1
# [12] = target: Gal(b1-3)GlcNAc(b1-6)Gal(b1-4)GlcNAc
# In short: as §1
# [13] = target: Gal(b1-3)GlcNAc(b1-6)GalNAc
# In short: as §1
# [14] = target: Gal(b1-3)GlcNAc(b1-6)[Gal(b1-3)]GalNAc
# In short: as §1
# Gal(b1-3)GlcNAc6S = target: Gal(b1-3)GlcNAc6S
# In short: as §1
# [15] = target: Gal(b1-3)[Fuc(a1-4)]GlcNAc
# In short: as §1
# [16] = target: Gal(b1-3)[Fuc(a1-4)]GlcNAc(b1-2)Man
# In short: as §1
# [17] = target: Gal(b1-3)[Fuc(a1-4)]GlcNAc(b1-2)Man(a1-3)[Gal(b1-3)[Fuc(a1-4)]GlcNAc(b1-2)Man(a1-6)]Man(b1-4)GlcNAc(b1-4)[Fuc(a1-6)]GlcNAc
# In short: as §1
# [18] = target: Gal(b1-3)[Fuc(a1-4)]GlcNAc(b1-3)Gal(b1-3)[Fuc(a1-4)]GlcNAc
# In short: as §1
# [19] = target: Gal(b1-3)[Fuc(a1-4)]GlcNAc(b1-3)Gal(b1-4)GlcNAc
# In short: as §1
# [20] = target: Gal(b1-3)[Fuc(a1-4)]GlcNAc(b1-3)Gal(b1-4)[Fuc(a1-3)]GlcNAc
# In short: as §1
# [21] = target: Gal(b1-3)[Fuc(a1-4)]GlcNAc(b1-6)GalNAc
# In short: as §1
# [22] = target: Gal(b1-3)[GlcNAc(b1-6)]GalNAc
# In short: as §1
# [23] = target: Gal(b1-3)[Neu5Ac(a2-6)]GalNAc
# In short: as §1
# [24] = target: Gal(b1-3)[Neu5Ac(a2-6)]GlcNAc(b1-4)Gal(b1-4)Glc
# In short: as §1
# [25] = target: Gal(b1-3)[Neu5Ac(b2-6)]GalNAc
# In short: as §1
# Gal(b1-4)Gal = target: Gal(b1-4)Gal
# In short: as §1
# [26] = target: Gal(b1-4)GalNAc(a1-3)[Fuc(a1-2)]Gal(b1-4)GlcNAc
# In short: as §1
# [27] = target: Gal(b1-4)GalNAc(b1-3)[Fuc(a1-2)]Gal(b1-4)GlcNAc
# In short: as §1
# Gal(b1-4)Glc = target: Gal(b1-4)Glc
# In short: as §1
binder,measurement,setting,value
B1,glycan array binding signal (z-score),[1],1.08
same,glycan array binding signal (z-score),[2],-0.481
same,glycan array binding signal (z-score),[3],-0.1
same,glycan array binding signal (z-score),[4],-1.13
same,glycan array binding signal (z-score),[5],-0.644
same,glycan array binding signal (z-score),[6],-0.152
same,glycan array binding signal (z-score),[7],0.19
same,glycan array binding signal (z-score),[8],0.698
same,glycan array binding signal (z-score),[9],-1.13
same,glycan array binding signal (z-score),[10],-0.338
same,glycan array binding signal (z-score),[11],-1.16
same,glycan array binding signal (z-score),[12],-0.856
same,glycan array binding signal (z-score),[13],-1.01
same,glycan array binding signal (z-score),[14],0.168
same,glycan array binding signal (z-score),Gal(b1-3)GlcNAc6S,0.096
same,glycan array binding signal (z-score),[15],0.017
same,glycan array binding signal (z-score),[16],-0.411
same,glycan array binding signal (z-score),[17],0.217
same,glycan array binding signal (z-score),[18],-0.751
same,glycan array binding signal (z-score),[19],1.61
same,glycan array binding signal (z-score),[20],-1.09
same,glycan array binding signal (z-score),[21],-0.524
same,glycan array binding signal (z-score),[22],0.638
same,glycan array binding signal (z-score),[23],-0.661
same,glycan array binding signal (z-score),[24],-0.334
same,glycan array binding signal (z-score),[25],-0.541
same,glycan array binding signal (z-score),Gal(b1-4)Gal,-0.419
same,glycan array binding signal (z-score),[26],0.345
same,glycan array binding signal (z-score),[27],-0.827
same,glycan array binding signal (z-score),Gal(b1-4)Glc,-0.325

# Random excerpt: two entries already listed, in no set order.
binder,measurement,setting,value
B1,glycan array binding signal (z-score),[22],0.638
same,glycan array binding signal (z-score),[5],-0.644

# Source: the supplement of paper PMC8728848
